# Results are given in words; binding and its absence hold for the method and conditions named. Some entries that bind do so weakly or less than the wild type.
# Sequences of proteins named here, by UniProt entry; tags and fusion partners are left off. A change or cut given only in a name is not applied to a line headed by its entry.
# UniProt P69905: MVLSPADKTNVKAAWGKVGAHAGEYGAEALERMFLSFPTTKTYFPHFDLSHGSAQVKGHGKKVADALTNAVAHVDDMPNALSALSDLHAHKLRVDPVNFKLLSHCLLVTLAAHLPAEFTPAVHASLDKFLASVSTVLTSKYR
# B1: IsdH N1N2N3 (residues 82-655), wild type (receptor)
# chain: NYPAADESLKDAIKDPALENKEHDIGPREQVNFQLLDKNNETQYYHFFSIKDPADVYYTKKKAEVELDINTASTWKKFEVYENNQKLPVRLVSYSPVPEDHAYIRFPVSDGTQELKIVSSTQIDDGEETNYDYTKLVFAKPIYNDPSLVKSDTNDAVVTNDQSSSVASNQTNTNTSNQNISTINNANNQPQATTNMSQPAQPKSSTNADQASSQPAHETNSNGNTNDKTNESSNQSDVNQQYPPADESLQDAIKNPAIIDKEHTADNWRPIDFQMKNDKGERQFYHYASTVEPATVIFTKTGPIIELGLKTASTWKKFEVYEGDKKLPVELVSYDSDKDYAYIRFPVSNGTREVKIVSSIEYGENIHEDYDYTLMVFAQPITNNPDDYVDEETYNLQKLLAPYHKAKTLERQVYELEKLQEKLPEKYKAEYKKKLDQTRVELADQVKSAVTEFENVTPTNDQLTDLQEAHFVVFESEENSESVMDGFVEHPFYTATLNGQKYVVMKTKDDSYWKDLIVEGKRVTTVSKDPKNNSRTLIFPYIPDKAVYNAIVKVVVANIGYEGQYHVRIINQDI
# modifications: coupled through primary amines to CNBr-activated Sepharose
# notes: In the assay the protein was immobilized on Sepharose; also called IsdH N1N2N3 wt; N1N2N3-Seph; not shown: vector-encoded His6 tag of pET-15b
# Target: hemoglobin (human) (UniProt P69905)
# Assay: removal of added hemoglobin from plasma by protein-Sepharose, H-index
binder,measurement,value
B1,binding,binds
